In PubChem BioAssay AID2685 (National Center for Advancing Translational Sciences (NCATS), 2010):
The other results are listed elsewhere or left out. Shown are side measurements of this screen, not its main read-out; they come without a call. Compounds called inactive in the main read-out are mostly missing here. Potencies come from curve fits of mixed quality, noted in brackets.

Assay: qHTS Assay for Lipid Storage Modulators in Drosophila S3 Cells;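 on cell number change: cells counted by Cell Tracker Red CMTPX staining in the red channel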
Conditions: BODIPY lipid droplet fluorescence, 18-24 h; for cell number change: measured here: cell count max response, cells fed with added oleic acid
Procedure, shortened: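 Drosophila S3 cells loaded with oleic acid (400 uM, as added) and compounds at several concentrations; lipid droplets imaged by 488-nm laser-scanning cytometry, 500–530 nm intensity and object ratio to cell channel. Percent activity normalized to 20 uM Triacsin C.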

[1] = measured here: cell number channel AC50, cells fed with added oleic acid
[2] = measured here: lipid fluorescence (Fed channel) AC50, cells fed with added oleic acid

Structure (SMILES)	cell number change [%]	AC50 [1]	AC50 [2]
NNC(=O)c1cccc(COc2ccc3c(c2)CCC3)c1	0.11	231 nM [rising, full curve, poor fit]	517 nM [rising, full curve]
CCCCN(CC)CCNc1c(NC2CCN(C(=O)OCC)CC2)c(=O)c1=O	2.03		651 nM [falling, full curve, poor fit]
CCC(C(=O)OC)n1cnc2scc(-c3ccc(C)c(C)c3)c2c1=O (centres undefined)	1.17		
CC1CCC2(CC1)NC(=O)N(NC(=O)CSc1nnc(NC3CC3)s1)C2=O (centres undefined)	-3.06		
COc1cc(C(=S)N2CCCC2)cc(Cl)c1OCC(=O)Nc1ccc(C)cc1C	15.8		1840 nM [rising, partial curve]
CCn1c2ccc(C)cc2c2n[nH]c(=S)nc21	2.93		580 nM [rising, single point]
COc1ccccc1-c1nnc(SCCN2CCOCC2)n1-c1ccc(C)cc1	3.71		29100 nM [rising, single point]
O=C(N/N=C/c1ccncc1)c1cc(-c2ccc(Br)s2)[nH]n1	12.4		2310 nM [rising, partial curve]
CCC1CSC(Nc2ccc(C(=O)/C=C/c3ccc(Br)cc3)cc2)=N1 (centres undefined)	-8.07		16400 nM [falling, single point]
O=C(CCNc1cccc(C(F)(F)F)c1)c1ccco1	54.2	16400 nM [rising, partial curve]	
Cc1nc(SCC(=O)Nc2cc(Cl)ccc2[N+](=O)[O-])nc(C)c1C	-28.6	920 nM [falling, full curve, poor fit]	146 nM [falling, full curve, poor fit]
O=C(Nc1ccc(NC(=O)c2ccccc2Br)cc1)c1ccccc1	60.6	32600 nM [rising, partial curve, poor fit]	
Cc1cc2c(OCC(O)CNC3CCCCC3)cccc2[nH]1 (centres undefined)	-45.2	29100 nM [falling, single point]	20600 nM [falling, single point]
O=C(NC(=S)Nc1ccc(N2CCOCC2)c(Cl)c1)C(c1ccccc1)c1ccccc1	-1.41	103 nM [falling, full curve, poor fit]	5.17 nM [falling, full curve, poor fit]
Cc1cc(NC(=O)CCC(=O)N(CC(=O)NC2CCCC2)c2ccc(Cl)cc2)no1	11.5		29100 nM [rising, single point]
O=C(c1ccc(COc2ccccc2Cl)o1)N1CCCC1	30.2	5800 nM [rising, single point]	

Random excerpt: 2 compounds from above
Structure (SMILES)	cell number change [%]	AC50 [1]	AC50 [2]
O=C(Nc1ccc(NC(=O)c2ccccc2Br)cc1)c1ccccc1	60.6	32600 nM [rising, partial curve, poor fit]	
NNC(=O)c1cccc(COc2ccc3c(c2)CCC3)c1	0.11	231 nM [rising, full curve, poor fit]	517 nM [rising, full curve]
